# Measured values reported in PubChem BioAssay AID588590 (National Center for Advancing Translational Sciences (NCATS), 2011).
# Sequences of proteins named here, by UniProt entry; tags and fusion partners are left off. A change or cut given only in a name is not applied to a line headed by its entry.
# UniProt Q9UNA4: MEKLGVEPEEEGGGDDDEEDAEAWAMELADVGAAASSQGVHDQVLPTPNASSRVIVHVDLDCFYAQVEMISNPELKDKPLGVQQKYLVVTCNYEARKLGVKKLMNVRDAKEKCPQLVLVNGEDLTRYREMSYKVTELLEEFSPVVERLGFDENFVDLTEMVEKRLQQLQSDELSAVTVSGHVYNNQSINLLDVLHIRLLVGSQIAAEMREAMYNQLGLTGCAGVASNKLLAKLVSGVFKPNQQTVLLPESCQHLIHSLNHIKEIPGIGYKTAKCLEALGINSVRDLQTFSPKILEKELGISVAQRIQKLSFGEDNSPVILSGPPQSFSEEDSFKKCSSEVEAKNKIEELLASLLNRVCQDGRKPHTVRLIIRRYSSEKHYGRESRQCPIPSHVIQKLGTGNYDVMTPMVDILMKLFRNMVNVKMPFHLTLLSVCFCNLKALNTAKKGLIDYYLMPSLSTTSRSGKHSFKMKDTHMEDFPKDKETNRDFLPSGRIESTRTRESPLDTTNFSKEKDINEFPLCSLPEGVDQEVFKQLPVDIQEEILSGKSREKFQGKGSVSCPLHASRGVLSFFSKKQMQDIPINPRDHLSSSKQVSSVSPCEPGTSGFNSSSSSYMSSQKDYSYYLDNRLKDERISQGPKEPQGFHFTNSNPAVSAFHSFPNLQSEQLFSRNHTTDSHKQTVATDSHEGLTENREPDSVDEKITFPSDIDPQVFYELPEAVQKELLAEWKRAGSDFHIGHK
# In all, about 390,000 compounds went through this assay and about 4,000 (1%) were called active. The shares of active, inactive and inconclusive entries below differ from those in the screen. The call rests on the fitted dose curve; in most records, active means well fitted inhibition curve with a large enough effect; inconclusive means small, poorly fitted or top-dose-only effect, or another doubt; inactive means no such curve, though single readings can be large or run the other way. Potencies beside an inconclusive call are fits to weak or partial responses and may not hold up.
# Target: DNA polymerase iota (Homo sapiens) (UniProt Q9UNA4)
# Experiment: qHTS for Inhibitors of Polymerase Iota
# Settings: Pol iota fluorescent replication assay, 10 min; series mostly up to 115 µM; activity, negative = inhibition: at the top concentration
# Method in brief: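 Fluorescent replication assay read twice, at 0 min and 10 min after adding 50 nM (final) substrate. Enzyme (10 nM) and compounds were first incubated 15 min at room temperature; enzyme-free buffer wells were negative controls.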
# Potency means the concentration at half of the fitted maximal effect.
Compound,Potency,"activity, negative = inhibition"
CCc1c(C)c2c(C)nn(-c3ccccc3)c2oc1=O,"inconclusive: 7.08 µM [inhibitor, single point]",–
Cc1cccc(S(=O)(=O)NNC(=O)Cc2cccn2C)c1,"inconclusive: 70.8 µM [inhibitor, single point]",–
Cc1cc(C=O)cc(C)c1[N+](=O)[O-],–,inactive: 0.784%
Cc1ccc(S(=O)(=O)c2cnc(SCC(=O)Nc3cccc(Cl)c3)nc2N)cc1C,"inconclusive: 79.4 µM [inhibitor, single point]",–
S=C(NCCc1ccccc1)N/N=C/c1c(Cl)cccc1Cl,"inconclusive: 100 µM [inhibitor, partial curve, poor fit]",–
N#CCCn1cc(C=C(C#N)C#N)c(-c2ccc(Cl)cc2)n1,"inconclusive: 39.8 µM [inhibitor, single point]",–
O=C(c1ccc2c3n(nc2c1)-c1ccccc1CO3)N1CCCCC1,–,inactive: 35.6%
COc1cc(C(=O)Nc2nc(C)cc(C)n2)cc(OC)c1OC,–,inactive: -9.52% [at 58.9 µM]
CCN(CC)C(=O)CN(c1cc(Cl)ccc1OC)S(C)(=O)=O,"inconclusive: 70.8 µM [inhibitor, full curve]",–
Cc1ccc(C(=O)Nc2ccc(S(=O)(=O)Nc3cnc4ccccc4n3)cc2)cc1,"inconclusive: 17.8 µM [inhibitor, single point]",–
O=C(CSc1nc2sc3c(c2c(=O)n1-c1ccccc1)CCCC3)N/N=C/c1ccc(C(=O)O)cc1,active: 39.8 µM,–
CN1C(=O)NC(c2ccccc2)C2=C1CN(Cc1ccco1)C2=O (stereo unspecified),"inconclusive: 56.2 µM [inhibitor, partial curve, poor fit]",–
C=C(C)[C@@H]1CC=C(CN2CCN(Cc3ccccc3)CC2)CC1,"inconclusive: 39.8 µM [inhibitor, partial curve]",–
CC(=O)N1CCN(c2cc(N3CCCC3)c(F)cc2[N+](=O)[O-])CC1,"inconclusive: 100 µM [inhibitor, partial curve, poor fit]",–
O=c1c(O[C@@H]2O[C@H](CO)C(O)C2O)c(-c2ccc(O)c(O)c2)oc2cc(O)cc(O)c12 (stereo partly specified),active: 35.5 µM,–
O=C(Nc1ccc2c(c1)C(=O)NC2=O)c1cccc(C(F)(F)F)c1,"inconclusive: 89.1 µM [inhibitor, single point]",–
CCN=C1S/C(=C\c2cn(C(C)=O)nc2-c2ccccc2)C(=O)N1CC,–,inactive: -11.6%
Cc1ccc(-n2nc3c(c2NC(=O)c2ccc(S(=O)(=O)N4CCOCC4)cc2)CSC3)c(C)c1,"inconclusive: 15.8 µM [inhibitor, partial curve, poor fit]",–
Cc1ccc(C)c(C(=O)COc2ccc(C)nc2[N+](=O)[O-])c1,"inconclusive: 25.1 µM [inhibitor, full curve]",–
CCOC(=O)c1cccc(NC(=O)Cn2c(CC(=O)NC)nc3ccccc32)c1,"inconclusive: 22.4 µM [inhibitor, partial curve, poor fit]",–
CCOC(=O)c1ccc(N/N=C/c2cc(Br)cc([N+](=O)[O-])c2O)cc1,–,inactive: 99.7%
CCC1(C(=O)c2ccccc2)C2c3cc(Br)ccc3OC(=O)C21C(=O)N1CCOCC1 (stereo unspecified),"inconclusive: 3.98 µM [inhibitor, partial curve, poor fit]",–

# Among those listed so far, two have an aryl methoxy group.
Compound,Potency,"activity, negative = inhibition"
COc1cc(C(=O)Nc2nc(C)cc(C)n2)cc(OC)c1OC,–,inactive: -9.52% [at 58.9 µM]
CCN(CC)C(=O)CN(c1cc(Cl)ccc1OC)S(C)(=O)=O,"inconclusive: 70.8 µM [inhibitor, full curve]",–

# Next compounds

Compound,Potency,"activity, negative = inhibition"
S=c1[nH]c2cnc(Cl)nc2[nH]1,"inconclusive: 25.1 µM [inhibitor, single point]",–
Cc1ccc(Cl)cc1-n1c(=O)c2sc3ccccc3c2n(CC(=O)NC2CCCCC2)c1=O,"inconclusive: 70.8 µM [inhibitor, single point]",–
COc1nc(NCC(C)C)nc(Oc2ccc(OCc3ccccc3)nn2)n1,"inconclusive: 3.55 µM [inhibitor, single point]",–
CCNC(=S)N(CCc1c(C)[nH]c2ccc(F)cc12)Cc1cccnc1,"inconclusive: 22.4 µM [inhibitor, partial curve, poor fit]",–
Cc1ccc2c(CC(=O)NCc3ccccc3)coc2c1C,–,inactive: 10.8%
COc1ccc(C(=O)N(Cc2ccc(N(C)C)cc2)Cc2ccco2)cc1Cl,–,inactive: -7.18%
CCOc1cccc(/C=N/N2C(=O)CSC2=S)c1O,"inconclusive: 10 µM [inhibitor, partial curve]",–
CCc1ccc(/C=C/C(=O)C2C(=O)c3ccccc3C2=O)cc1,"inconclusive: 28.2 µM [inhibitor, partial curve, poor fit]",–
O=C(Nc1ccc(C(F)(F)F)cc1)c1cc(S(=O)(=O)NC2CCCCC2)ccc1F,–,inactive: 16.4%
CCC(c1nc2ccccc2c(=O)n1CCCn1ccnc1)N1C(=O)c2ccccc2C1=O (stereo unspecified),"inconclusive: 89.1 µM [inhibitor, partial curve, poor fit]",–
CCOC(=O)C1=C(C)NC(=O)C1(NC(=O)c1cccnc1)C(F)(F)F (stereo unspecified),"inconclusive: 79.4 µM [inhibitor, partial curve, poor fit]",–
COc1ccccc1-c1nc(S(=O)(=O)c2ccccc2)c(N2CCOCC2)o1,"inconclusive: 89.1 µM [inhibitor, single point]",–
O=C(C1=C(O)C(=O)N(CCN2CCOCC2)C1c1cccc([N+](=O)[O-])c1)c1cccs1 (stereo unspecified),"inconclusive: 25.1 µM [inhibitor, partial curve, poor fit]",–
COc1cccc(-c2nc(=S)c3c(o2)CCCC3)c1,"inconclusive: 39.8 µM [inhibitor, single point]",–
C/C(Cl)=C/Cn1c(SCC(C)C)nc2c1c(=O)[nH]c(=O)n2C,–,inactive: 22%
Cn1cccc1CC(=O)N/N=C\c1c2ccccc2cc2ccccc12,"inconclusive: 89.1 µM [inhibitor, partial curve, poor fit]",–
O=C(N/N=C/c1ccncc1)c1cccc(N/N=C/c2ccncc2)c1,"inconclusive: 39.8 µM [inhibitor, single point]",–
O=C(NNC(=O)c1cc2cc(Br)ccc2oc1=O)c1ccc(O)cc1O,"inconclusive: 28.2 µM [inhibitor, single point]",–
COc1cc(C(=O)Nc2nc(N)n(-c3ccccc3)n2)cc(OC)c1OC,"inconclusive: 35.5 µM [inhibitor, single point]",–
COc1ccc(CCNC(=O)CSc2ccsc2[N+](=O)[O-])c(OC)c1,"inconclusive: 56.2 µM [inhibitor, partial curve, poor fit]",–
O=C(OCC(=O)c1ccccc1Br)c1ccccn1,"inconclusive: 35.5 µM [inhibitor, partial curve, poor fit]",–
CCCCn1c(SCC(=O)NCc2ccco2)nc2ccc(N3CCOCC3)cc2c1=O,"inconclusive: 15.8 µM [inhibitor, single point]",–

Compound,Potency,"activity, negative = inhibition"
O=C(N=C1c2ccccc2CN1c1ccc(F)cc1)c1ccc(Cl)nc1,–,inactive: 17%
CC1=NNC(=O)C1Oc1ccccc1 (stereo unspecified),active: 25.1 µM,–
Cc1ccc(-n2nc3ccc(NC(=O)c4oc5ccc(C)cc5c4C)cc3n2)cc1,"inconclusive: 31.6 µM [inhibitor, single point]",–
O=c1c2c(-c3ccccc3)csc2ncn1/N=C/c1cccc([N+](=O)[O-])c1O,–,inactive: -25.4%
O=[N+]([O-])/C=C/c1cc2ccccc2[nH]1,"inconclusive: 25.1 µM [inhibitor, single point]",–
Cc1ccc(-n2nnc(-c3nsc(NC(=O)c4ccccc4)n3)c2C)cc1,"inconclusive: 22.4 µM [inhibitor, full curve]",–
CCc1ccc(/C=C(/C#N)C(N)=S)s1,–,inactive: -12.7%
O=C(Cc1ccccc1)N/N=C/c1cc(Br)c(Br)o1,"inconclusive: 39.8 µM [inhibitor, partial curve, poor fit]",–
Cc1cc(C(F)F)n2nc(C(=O)Nc3cc(Cl)ccc3C)nc2n1,–,inactive: -0.538%
Cc1cc(N2C(=O)C(O)=C(C(=O)c3ccco3)C2c2cccc(Oc3ccccc3)c2)no1 (stereo unspecified),"inconclusive: 25.1 µM [inhibitor, full curve, poor fit]",–
CCN(C(=O)Cn1ncc2c(=O)oc3ccc(C)cc3c21)c1cc(OC)ccc1OC,"inconclusive: 70.8 µM [inhibitor, single point]",–
CCOC(=O)c1c(-c2ccccc2)oc2ccc(OCC(=O)O)cc12,"inconclusive: 39.8 µM [inhibitor, single point]",–
CCc1ccc(OCC(=O)NNC(=O)c2cnccn2)c(Br)c1,"inconclusive: 14.1 µM [inhibitor, partial curve, poor fit]",–
CCOC(=O)Cn1c(=O)oc2cc(S(=O)(=O)Nc3cccc(C)c3)ccc21,"inconclusive: 35.5 µM [inhibitor, single point]",–
Cc1ccc(NC(=O)c2cccc(NC(=O)/C=C/c3ccco3)c2)cc1C,"inconclusive: 35.5 µM [inhibitor, partial curve]",–
Cc1c(N)cc(S(=O)(=O)O)cc1NC(=O)c1cccc([N+](=O)[O-])c1,"inconclusive: 35.5 µM [inhibitor, partial curve, poor fit]",–
CCCc1nn2c(=O)cc(COc3cccc(NC(=O)c4ccco4)c3)nc2s1,–,inactive: -25.4%
CCC(=O)Nc1ccc2oc(-c3cccc(C)c3)nc2c1,"inconclusive: 35.5 µM [inhibitor, single point]",–
Cc1c2cc[n+](CCN3CCCCC3)cc2c(C)c2c1[nH]c1ccc(O)cc12,active: 25.1 µM,–
Cc1nc2ccccn2c1-c1csc(Nc2cccc(C(=O)O)c2)n1,"inconclusive: 44.7 µM [inhibitor, partial curve]",–
CCCCn1nc2cc(C(=O)NCC34CC5CC(CC(C5)C3)C4)ccc2c1OC,"inconclusive: 35.5 µM [inhibitor, single point]",–
CN1CCN(CCC(=O)N2c3ccccc3Sc3ccc(Cl)cc32)CC1,"inconclusive: 5.62 µM [inhibitor, full curve, poor fit]",–

# One compound at a time (already shown). Values in the order: Potency	activity, negative = inhibition
# `CCC(=O)Nc1ccc2oc(-c3cccc(C)c3)nc2c1` in the list: inconclusive: 35.5 µM [inhibitor, single point]	–
# `O=c1c2c(-c3ccccc3)csc2ncn1/N=C/c1cccc([N+](=O)[O-])c1O` in the list: –	inactive: -25.4%
